Source: patent publication US20250236878A1 (priority 2019, published 2025)

Sequence: GGIRAAPTGNER (Glycine max) [GmRHPP]
- increased foliar iron levels, average relative to untreated (foliar 3.0 mL/tree (Table 71)): 28%
- increased foliar boron levels, average relative to untreated across three trials (foliar 3.0 mL/tree (Table 72)): 12%
